Measured data: PubChem BioAssay AID1671195 (Yale University, 2021)

Aim: 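Genes whose knockdown alters LDL uptake in liver cancer cells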 (primary screen)
Cells: human Huh7 hepatoma cells
Reagent: siRNA pool against human genes, 18 nM
Duration: about 2 to 2.5 days of knockdown, then 8 h LDL uptake
Conditions: DiI-labelled LDL at 30 µg/ml for 8 h, in lipoprotein-deficient serum medium
Detection: 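Per-cell DiI-LDL intensity by automated imaging; well means scaled to the plate median and given as a robust z-score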
Scale: robust z-score: higher = more LDL uptake after knockdown
Active means: 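Active when two or more replicates show a robust z-score above 2 or below -2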
In all, the deposit lists about 22,000 reagents; below is a random part of them. About 1,510 of them (6.9%) were called active. 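Active includes knockdowns raising or lowering LDL uptake; positive z-scores mean more uptake, negative mean less.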 Entries without a mark were called inactive. Reagent sequences are not shown.

The opening 3 entries, to show the layout:
| Target gene | robust z-score, replicate 1 | robust z-score, replicate 2 | robust z-score, replicate 3 |
| --- | --- | --- | --- |
| GTF3C6 | 1.79 | 0.302 | -0.0643 |
| RFX6 | 1.41 | 1.79 | 1.72 |
| DKKL1 | -2.17 | -0.894 | -0.491 |

Results, from the first entry:
| Target gene | robust z-score, replicate 1 | robust z-score, replicate 2 | robust z-score, replicate 3 |
| --- | --- | --- | --- |
| GTF3C6 | 1.79 | 0.302 | -0.0643 |
| RFX6 | 1.41 | 1.79 | 1.72 |
| DKKL1 | -2.17 | -0.894 | -0.491 |
| CEBPD | -0.25 | 0.164 | 2.6 |
| ANKRD27 | 0.561 | 1.11 | 0.341 |
| LTB | 0.326 | 0.726 | 0.827 |
| VSIR | -1.13 | -0.641 | -0.479 |
| PCK2 | -0.721 | -1.33 | -0.638 |
| OR14C36 | 2.99 (active) | 2.37 | 0.253 |
| PREP | -0.0121 | 0.717 | 0.536 |
| ACOX2 | -0.513 | -0.121 | -0.00753 |
| RENBP | -0.486 | -0.511 | -0.221 |
| NAT14 | 0.583 | 0.833 | 0.682 |
| ATP2B3 | -1.47 | -1.44 | -1.26 |
| ZNF667-AS1 | -0.256 | -0.123 | -0.304 |
| LOC442200 (retired record) | 0.824 | -0.0876 | 0.362 |
| NSDHL | -0.222 | 0.0604 | 0.0137 |
| PLEKHM3 | -1.31 | -1.36 | -1.26 |
| MBD1 | 2.54 | 1.34 | 1.42 |
| SOSTDC1 | -0.18 | 0.178 | 0.169 |
| MOBP | -0.4 | -0.7 | -0.601 |
| GDPD5 | 1.61 | 1.17 | 0.436 |
| GRIPAP1 | -1.35 | -0.198 | -0.089 |
| MRPL53 | -1.89 | -0.523 | -0.503 |
| LINC01558 | 0.562 | 0.631 | -0.91 |
| NEK3 | 1.85 | 1.49 | 0.788 |
| NLN | 1.05 | 0.784 | 0.52 |
| VNN3P | 0.00668 | 0.674 | 0.742 |
